Reference: patent US20090143279A1 (priority 2007, published 2009)
Values joined by “and” are separate entries in the source; they are usually repeats but may differ in a detail not shown here. Equal entries are not always repeated. Where two headings read alike, the source gives them in different places. At least one read-out could not be matched to a standard name with certainty.

Assays:
[1] = tested on: reactive oxygen species; type: cell-based, mouse
[2] = tested on: OXPHOS gene expression; type: cell-based, mouse
[3] = tested on: nuOXPHOS transcripts; type: cell-based, mouse
[4] = tested on: mtOXPHOS transcripts; type: cell-based, mouse
[5] = tested on: C2C12 myotubes
[6] = tested on: cellular dehydrogenase activity
[7] = tested on: mitochondrial membrane potential; type: cell-based, mouse
[8] = composite Z-score vs mock-treated (DMSO) wells, concentration of each compound in μM
[9] = normalized score (composite Z-score vs DMSO mock-treated wells), compound concentration (μM)

Structure (SMILES) | ROS [1] | GE-HTS [2] | nucOX [3] | mitoOX [4] | MTT [6] | Viability [5] | further results
CC(=O)O[C@]1(C(C)=O)CC[C@H]2[C@@H]3C=C(C)C4=CC(=O)CC[C@]4(C)[C@H]3CC[C@@]21C [megestrol acetate] | – | – | – | – | – | – | ROS [1, 8]: 0.692; GE-HTS [2, 8]: 0.106; nucOX [3, 8]: 0.170; mitoOX [4, 8]: 0.024; Viability [5, 8]: 0.546; MTT [6, 8]: 0.296
CNC(=O)CSP(=S)(OC)OC [dimethoate] | 1.036 | −1.431 | −1.309 | −1.363 | −1.273 | – | ΔΨm [7]: 0.139
[H]/N=C(/N)N/C(=N/[H])NCCc1ccccc1 [phenformin] | −0.545 | 0.616 | 0.870 | −0.059 | −1.696 | 0.372 | –
CC1=C(/C=C/C(C)=C/C=C/C(C)=C/C=C/C=C(C)/C=C/C=C(C)/C=C/C2=C(C)CCCC2(C)C)C(C)(C)CCC1 [beta-carotene] | 1.388 | −0.186 | −0.130 | −0.192 | −1.352 | −1.148 | –
Cc1noc(NS(=O)(=O)c2ccc(N)cc2)c1C [sulfisoxazole] | 0.970 | 0.293 | 0.304 | 0.217 | −1.140 | −0.535 | –
CC(C)NCC(O)COc1ccc(COCCOC(C)C)cc1 (stereo not shown) [bisoprolol] | – | – | – | – | – | – | ΔΨm [7, 9]: 0.986; ROS [1, 9]: 0.513; nucOX [3, 9]: 0.607; mitoOX [4, 9]: 0.564; Viability [5, 9]: 0.314; MTT [6, 9]: 0.031
CN(C)C(=N)N=C(N)N [metformin] | – | – | – | – | – | – | ROS (composite Z-score vs DMSO) [1]: 0.413; GE-HTS (composite Z-score vs DMSO) [2]: 0.297; nucOX (composite Z-score vs DMSO) [3]: 0.516; mitoOX (composite Z-score vs DMSO) [4]: −0.263; Viability (composite Z-score vs DMSO) [5]: −0.388; MTT (composite Z-score vs DMSO) [6]: −0.276
O=c1oc2ccccc2c(O)c1Cc1c(O)c2ccccc2oc1=O [dicumarol] | – | – | – | 0.040 and 0.043 | 1.467 and 0.942 | – | –
CCC(=O)c1ccc2c(c1)N(CC(C)N(C)C)c1ccccc1S2 (stereo not shown) [propiomazine] | 1.024 | −0.901 | −0.922 | −0.695 | −0.200 | −0.631 | –
NC(=O)c1ncn([C@@H]2O[C@H](CO)[C@@H](O)[C@H]2O)n1 [ribavirin] | 0.401 | 0.425 | 0.520 | 0.138 | −0.892 | −1.176 | –
CC(=O)Nc1ccc(O)cc1 [acetaminophen] | 0.917 | – | – | 0.259 | – | – | –
CCOC(=O)C1=C(C)NC(C)=C(C(=O)OC)C1c1cccc(Cl)c1Cl (stereo not shown) [felodipine] | – | – | – | – | – | – | ROS [1, 8]: −0.682; GE-HTS [2, 8]: 0.477; nucOX [3, 8]: 0.498; mitoOX [4, 8]: 0.341; Viability [5, 8]: 1.052; MTT [6, 8]: −1.229
CCCC1C(=O)N2C(N(C)C)=Nc3ccc(C)cc3N2C1=O (stereo not shown) [azapropazone] | 1.003 | −0.064 | −0.094 | 0.005 | −1.289 | −0.340 | –
CCN(CC)CC#CCOC(=O)C(O)(c1ccccc1)C1CCCCC1 (stereo not shown) [oxybutynin] | 0.547 | 0.372 | 0.466 | 0.112 | −0.644 | −0.493 | –
COc1ccc(CCC(=O)c2c(O)cc(O[C@@H]3O[C@H](CO)[C@@H](O)[C@H](O)[C@H]3O[C@@H]3O[C@@H](C)[C@H](O)[C@@H](O)[C@H]3O)cc2O)cc1O [neohesperidin dihydrochalcone] | 0.934 | −0.190 | −0.372 | 0.259 | −0.964 | 0.061 | –
COc1ccc(-c2oc3c(CC=C(C)C)c(O[C@@H]4O[C@H](CO)[C@@H](O)[C@H](O)[C@H]4O)cc(O)c3c(=O)c2O[C@@H]2O[C@@H](C)[C@H](O)[C@@H](O)[C@H]2O)cc1 [icariin] | – | – | – | – | – | – | ROS [1, 8]: 0.775; GE-HTS [2, 8]: 0.578; nucOX [3, 8]: 0.656; mitoOX [4, 8]: 0.331; Viability [5, 8]: −0.001; MTT [6, 8]: −2.441
CC(COc1ccccc1)NC(C)C(O)c1ccc(O)cc1 (stereo not shown) [isoxsuprine] | – | – | – | – | – | – | ROS [1, 8]: 1.652; GE-HTS [2, 8]: 0.888; nucOX [3, 8]: 0.827; mitoOX [4, 8]: 0.800; Viability [5, 8]: −1.004; MTT [6, 8]: −1.833
COc1ccc(C(CN(C)C)C2(O)CCCCC2)cc1 (stereo not shown) [venlafaxine] | – | – | – | – | – | – | ΔΨm [7, 8]: −0.685; ROS [1, 8]: 0.030; GE-HTS [2, 8]: −0.521; nucOX [3, 8]: −0.450; mitoOX [4, 8]: −0.517; Viability [5, 8]: 0.301

Structure (SMILES) | ROS [1] | GE-HTS [2] | nucOX [3] | mitoOX [4] | MTT [6] | Viability [5] | further results
O=C(OCCOCCO)c1ccccc1Nc1cccc(C(F)(F)F)c1 [etofenamate] | 1.003 | 0.035 | −0.126 | 0.343 | −0.523 | −0.983 | –
COCCCC/C(=N\OCCN)c1ccc(C(F)(F)F)cc1 [fluvoxamine] | 0.826 | 0.445 | 0.590 | 0.052 | −0.012 | −0.521 | –
CCOC(=O)[C@H](CCc1ccccc1)N[C@@H](C)C(=O)N1[C@H](C(=O)O)C[C@H]2CCCC[C@@H]21 [trandolapril] | 0.745 | −0.241 | −0.174 | −0.259 | −0.581 | −1.323 | –
CN1CCN(CC/C=C2/c3ccccc3Sc3ccc(S(=O)(=O)N(C)C)cc32)CC1 [thiothixene] | −0.324 | −0.215 | 0.004 | −0.624 | −1.708 | 0.036 | –
CN1CCN2c3ccccc3Cc3ccccc3C2C1 (stereo not shown) [mianserine] | 0.821 | 0.177 | 0.196 | 0.064 | 0.311 | 0.046 | –
CN1CCN2c3ccccc3Cc3ccccc3C2C1 (stereo not shown) [mianserin] | −0.195 | −2.484 | −2.139 | −2.627 | −0.571 | 1.265 | –
COc1ccc2c(c1)[nH]c1c(C)nccc12 [harmine] | – | – | – | – | – | – | mitoOX (composite Z-score) [4]: 0.368 and 0.717
Nc1cc(C(Cl)=C(Cl)Cl)c(S(N)(=O)=O)cc1S(N)(=O)=O [clorsulon] | 1.055 | 0.240 | 0.394 | −0.125 | −0.774 | −0.111 | –
C[C@@H](O)[C@H]1C(=O)N2C(C(=O)O)=C(SCCN=CN)C[C@H]12 [imipenem] | 0.790 | −0.495 | −0.319 | −0.755 | −0.777 | −0.973 | –
C[C@]12C[C@H](O)[C@H]3[C@@H](CCC4=CC(=O)CC[C@@]43C)[C@@H]1CC[C@@H]2C(=O)CO [corticosterone] | 0.126 | −0.358 | −0.282 | −0.446 | −1.282 | −0.693 | –
Cc1ccccc1C(OCCN(C)C)c1ccccc1 (stereo not shown) [orphenadrine] | 1.010 and 1.018 | – | – | 0.548 and 0.453 | – | – | –
CN(CCOc1ccc(CC2SC(=O)NC2=O)cc1)c1ccccn1 (stereo not shown) [rosiglitazone] | 0.382 | −0.066 | 0.023 | −0.165 | −0.990 | −0.908 | –
CC(=O)N(CC(O)CN(C(C)=O)c1c(I)c(C(=O)NCC(O)CO)c(I)c(C(=O)NCC(O)CO)c1I)c1c(I)c(C(=O)NCC(O)CO)c(I)c(C(=O)NCC(O)CO)c1I (stereo not shown) [iodixanol] | – | – | – | – | – | – | ΔΨm [7, 8]: −0.651; GE-HTS [2, 8]: −0.422; nucOX [3, 8]: −0.534; mitoOX [4, 8]: −0.114; Viability [5, 8]: −0.580; MTT [6, 8]: −2.238
CC(C)(C)NC[C@H](O)COc1ccccc1C1CCCC1 [penbutolol] | – | – | – | – | – | – | ΔΨm [7, 9]: 0.436; ROS [1, 9]: −0.960; GE-HTS [2, 9]: −1.251; nucOX [3, 9]: −1.184; mitoOX [4, 9]: −1.143; MTT [6, 9]: −1.020
NC[C@@H]1CC[C@@H](N)[C@@H](O[C@H]2[C@H](O)[C@@H](O[C@H]3O[C@H](CO)[C@@H](O)[C@H](N)[C@H]3O)[C@H](N)C[C@@H]2N)O1 [dibekacin] | 0.027 | −0.603 | −0.522 | −0.645 | −1.282 | 1.367 | –
O=C1CC2(CCCC2)CC(=O)N1CCCCN1CCN(c2ncccn2)CC1 [buspirone] | 1.384 | −0.237 | −0.130 | −0.411 | −0.306 | −0.642 | –
CC(C)(C)c1ccc(C(O)CCCN2CCC(C(O)(c3ccccc3)c3ccccc3)CC2)cc1 (stereo not shown) [terfenadine] | – | – | – | – | – | – | ΔΨm (composite Z-score vs DMSO) [7]: −0.174; ROS (composite Z-score vs DMSO) [1]: 0.266; GE-HTS (composite Z-score vs DMSO) [2]: −0.299; mitoOX (composite Z-score vs DMSO) [4]: −0.157; Viability (composite Z-score vs DMSO) [5]: −0.199; MTT (composite Z-score vs DMSO) [6]: −1.333
CC(NCCc1ccc(O)cc1)C(O)c1ccc(O)cc1 (stereo not shown) [ritodrine] | – | – | – | – | – | – | ΔΨm [7, 8]: −1.368; ROS [1, 8]: 0.742; nucOX [3, 8]: −0.352; mitoOX [4, 8]: 0.089; Viability [5, 8]: −0.827; MTT [6, 8]: −0.706
